From patent US11274314B2, “Herbicide safener combinations for acetyl co-enzyme a carboxylase herbicide resistant plants” (priority 2016, dated 2022)
At least one compound was matched to its structure with a doubt left.

Test system: quizalofop tolerant mutant wheat accessions and non-mutant check
Assay: Cross-resistance study within the ACCase herbicide mode of action, plant survival
Format: in vivo, Triticum aestivum L.
Settings: summary of Table 1
Method: Dose response. A dose response study was completed with 11, 23, 46, 92, and 184 g quizalofop ha^−1. Seven DAT the tops of plants were cut off above the newest above-ground growing point. Binomial evaluation of plant survival was performed 28 DAT. Differences were uncovered in the whole plant sensitivity to increasing application rates of quizalofop. […] Resistant to susceptible ratios for this experiment ranged from 1.6 to 7.5 based on survival/death of the plants. Cross-resistance. A cross-resistance study was conducted within the ACCase herbicide mode of action using herbicides normally lethal to wheat. Clethodim, sethoxydim, and fluazifop were used at rates of 65, 264, and 361 g ai ha^−1, plus a treatment of clethodim and 10.5 g ai ha^−1 quizalofop. Seven DAT the tops of plants were cut off above the newest above-ground growing point. Binomial evaluation of plant survival was performed 28 DAT. Tolerance of quizalofop mutants to clethodim and sethoxydim was low (Table 1). […] The experiment included four accessions which included a representative from the three mutations detected and non-mutagenized wheat. […] Calculated at the 125 level, the resistant to susceptible value for the A genome was 4.57, the B genome was 3.57 and the D genome was 10.86.

SMILES: CCSC(C)CC1CC(=O)C(/C(CC)=N/OC/C=C/Cl)=C(O)C1 (stereo not shown) [Clethodim, (E,E)-(.+−.)-2-[1-[[(3-chloro-2-propenyl)oxy]imino]propyl]-5-[2-(ethylth-io)propyl]-3-hydroxy-2-cyclohexen-1-one]
- Tolerance of quizalofop mutants: low
